Reference: US6448405B1, “Steroid receptor modulator compounds and methods” (Ligand Pharmaceuticals Incorporated, priority 1994, dated 2002)
At least one compound was matched to its structure with a doubt left.

Assays:
[1] = tested on: pregnancy (implantation sites) in female mice (ICR strain); assay: Implantation assay (antiprogestin activity); type: in vivo, mouse; settings: 1.0 mg/day oral, days 2 to 4 of pregnancy
Protocol: Mating was assumed to have taken place at 02.00 h, time 0.
Compound 150 was dissolved in sesame oil (50 mg/mL) and kept at room temperature before use. […] Control animals received an equivuivalent volume of the control vehicle, sesame oil, alone.
The animals were sacrificed, and autopsies were carried out at Day 8 of pregnancy, and numbers of implantation sites counted and recorded, and are shown in Table 7 below. Each group consisted of between 5 and 7 animals.

PR, AR, ER, GR and MR = assay: cis-trans or co-transfection assay, steroid receptor panel (cross-reactivity); type: cell-based, human
[2] = tested on: ventral prostates (VP) and seminal vesicles (SV) of immature castrated rats; assay: Immature castrated male rat model (antiandrogen activity); type: in vivo; settings: co-administered with 0.1 mg of TP

SMILES | Percent Pregnancy Rate [1] | cross reactivity on GR and other tested steroid receptors (PR, AR, ER, GR and MR) | AR antagonist activity: suppression of testosterone-mediated increases in the weights of VP and SV [2]
CC#C[C@]1(O)CC[C@H]2[C@@H]3CCC4=CC(=O)CCC4=C3[C@@H](c3ccc(N(C)C)cc3)C[C@@]21C [RU486, (11 beta, 17 beta)-11-[4-(dimethylamino)phenyl]-17-hydroxy-17-(1-propynyl)estra-4,9-dien-3-one, reference compound] | zero | strong cross reactivity on both GR and AR | 
CC(C)C(=O)Nc1ccc([N+](=O)[O-])c(C(F)(F)F)c1 [flut, flutamide, reference compound] |  |  | inhibiting the testosterone-mediated increases in the weights of VP and SV in a dose-dependent manner
